Screen size: about 52,000 sequences; about 210 (0.4%) were called active.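 Rule for the calls: active = gene whose silencing raises cell survival under the drug, median off-target-corrected z-score across its silencing RNAs 2 or more; inactive = the rest.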 Some of the results follow.

The text below walks through data of PubChem BioAssay AID1347423 (Functional Genomics Laboratory (NCATS/FGL), 2020).

The nature of this experiment: Resistance to Poly (ADP-Ribose) Polymerase inhibitor: Gene Identification via Genome-wide siRNA Screen. The note with it: mouse BRCA2 R2336H ES cells, olaparib, CellTiter-Glo viability; hits give high values. In outline:
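Mouse BRCA2 R2336H ES cells were reverse-transfected with siRNA (20 nM final), treated at 48 h with 500 nM olaparib, and read by CellTiter-Glo after 72 h. Scores: MAD-based z per siRNA, median per gene, seed off-target correction.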
Consider ACUGUUUAGACCCGGUUUCTT against Cd59b, for which the z-score is inactive: 0.132. With GCAUGUAUAUAGGUAAAACTT against Nedd1, the z-score was inactive: 1.24. Turning to GGAUUCUUCGCUCCAAUGATT against Pacs1, the z-score is inactive: 1.65. As to GGAGAUCAUGGAGAAAGGCTT against Btbd14b, the z-score is inactive: -0.461. Next, GAUUUCAUUAAACAUGUCCTT against Cox8b: inactive: -0.165; “CCGCUCUGUUUCAAUCCUGTT against 4930417M19Rik”: inactive: 1.6. Take GGAUCUUUUGAGAAAGAACTT against Bai3: the z-score is inactive: 0.432. As to GGCAGGAACUUUAUAAGGATT against Xlr4, the z-score is inactive: 0.489.

As for GGAUCUAGUCCCUGAUUUGTT against Sdhb, the z-score is inactive: 0.661. Consider GGAUGGAACUAUCUGAAUUTT against Slc7a5, for which the z-score was inactive: 1.76. In the case of CGCCACGAACUCAAUUCUGTT against Irx4, the z-score is inactive: -0.738. On to GGAAAUCUAAAGGAGACAUTT against Cdo1, for which the z-score was inactive: 2.9. On to “GCCUCGAGAUAUUCUUUGUTT against A330064G03Rik”, for which the z-score was inactive: -0.803. As to GCGAGGAAAGAGCACUGUATT against BC055107, the z-score was inactive: 1.11. For GGACAGAGAAAGGCACAGATT against Clcn3, the z-score is inactive: 0.844. As for GGAUGUGGGUGGAUAUCAUTT against Sit, the z-score was inactive: 2.34. In the case of CCCAUUGUCAUGAUAAGCUTT against Fbln1, the z-score was inactive: 0.608. As to UUUUCCAGUUAGUGACAACTT against Oxct2b, the z-score was inactive: 0.0287. In the case of “GCUCCAGAUGUCAAAUUAATT against 2310034L04Rik”, the z-score is inactive: 1.03.

For CCAGGAUUACUUACACUCGTT against Flot1, the z-score is inactive: 0.396.

GCAAGAGUCCACCUUUAGCTT against Gstk1: the z-score was inactive: 1.28. Regarding GGAUGUGCUUAUGAACAAUTT against Rab38, the z-score was inactive: -0.0251.

Consider GCUGACAGUAGUUUGAAGATT against Defb1, for which the z-score was inactive: -0.459. Regarding “GGACCAUAAUGGCAAUAAATT against 1700011H14Rik”, the z-score was inactive: -0.769. In the case of CCAUUCUGAAUCUCUAAUCTT against Pigw, the z-score is inactive: -0.0839.

For GGCCAAAUAGCAUUUGCCATT against Olfr657, the z-score was inactive: 0.292.

Turning to GGUCAGAGUGCCUCUUGAATT against Slc7a5, the z-score was inactive: -0.666. Regarding GCAUAACUCAUGAUCUCCUTT against Oit3, the z-score is inactive: 0.546. As to GCACAGUAGUGAAAGUGAATT against Hspa14, the z-score is inactive: -0.0907.

With GGACUUGUCUGGAUUUUGGTT against Mal2, the z-score was inactive: 0.301. In the case of GGACGGUCUCAACUUUUCCTT against Icam2, the z-score is inactive: 1.14. For “GCUUACUAAUGCGGAUUACTT against 5330438D12Rik”, the z-score was inactive: 1.26. Regarding GGUGGAGAUUGUUUGUAAATT against AW125753, the z-score was inactive: 1.4. With CCCACCACAAGCUAAUACATT against Ubadc1, the z-score is inactive: -0.00448. With GGAAGAGGCUGAAUCAGCUTT against MGC37347, the z-score was inactive: -1.28. Consider “GCAACCUGAGGAAUUCAAUTT against D330045A20Rik”, for which the z-score is inactive: 0.017. Turning to “CCUACAGACGGAUACCAGATT against 9930012K11Rik”, the z-score was inactive: -0.51. For the sequence GGUUUUUCGAGUUUUUUCUTT against Msx1, the z-score was inactive: -0.359. Consider “GGUAGGACCCAAACAUGUATT against 9830147P19Rik”, for which the z-score is inactive: -1.02. GGGCUUCUGCUUUUACUACTT against Ppp2cz: the z-score was inactive: 0.734. Consider “GGUGACUGUUCAGAUGGAGTT against 2700038I16Rik”, for which the z-score is inactive: -0.1. For the sequence GGAAAGAAUAUGAGAAUGCTT against Reck, the z-score is inactive: 2.07.

For the sequence GGUACUUGAAGACUUGGAGTT against Rasal1, the z-score is inactive: -0.224.

Take GGCAGAAAAUAAUUACUUGTT against Sh3d19: the z-score was inactive: 1.37.

On to CCAUUGUCACUCCUAGUGUTT against Olfr1361, for which the z-score is inactive: 0.761. Turning to GGUGUGGCUGAUGUAUAAATT against Syt7, the z-score was inactive: 0.97.

On to GCACAAUCAUUCUUCUCAUTT against Frap1, for which the z-score was inactive: -0.713. Consider GGCAUUGAAGACAAGACCCTT against Papd1, for which the z-score is inactive: 0.981. On to “GGGAAGUGCCUCCUAUACUTT against 3010027G13Rik”, for which the z-score is inactive: 0.0362.

As for GCUCCCACUUCACUUCUGUTT against Olfr965, the z-score was inactive: 0.428. In the case of CCUUAAGACCGGAUUUUUUTT against Cyp4f14, the z-score was inactive: 0.367.

Turning to GGGAUGUGCAAUUAUAUCUTT against Muc6, the z-score is inactive: 1.32. Then GGAUACCAAGAUUCCAAAUTT against Pik3r4, with inactive: -0.502; and CCCAAAGAGAAAUUUCUAGTT against Mfi2, with inactive: 0.576; and GGUGACAACACUUGUCAACTT against Catna2, with inactive: 0.0714. Then CGGCUCUUCAAUAGAGCCUTT against Olfr123, with inactive: 0.399; and GGCUUUCCCAAGCUAAGAGTT against Maff, with inactive: 0.556; and GGGCAACAACAAUGUCUUATT against Islr, with inactive: -0.565. For CCAUGAAGUCCCAUGUUAUTT against Tpo, the z-score was inactive: 0.161. Then GGUCAAGACGGUCUACCGATT against Rab3d, with inactive: -0.296; and “CCCUCAAAGUCAUUUCAAATT against 4930463G05Rik”, with inactive: -0.615. On to GUUAAGAUUUAGGCAUCAATT against Olfr805, for which the z-score was inactive: 0.745. On to GGAGAUGCCUAGUAUGAGCTT against Onecut2, for which the z-score was inactive: 1.41.

Regarding GACCAGAAAUUUAAGUGCUTT against Wbscr18, the z-score is inactive: -0.348. Then CCAUCUCAGAAAAGCUUGUTT against Il1rl1l, with inactive: -0.756; and GGAUUAAACUGCAUAACAGTT against Ctsq, with inactive: -0.464.

In the case of GUCAUCAUGGGUCCUGAGATT against V1ri9, the z-score was inactive: -1.83.

Take CCUAUUUGGUUCCUGAUGGTT against Gm1968: the z-score is inactive: -1.04. Take GGCUUUCUUCUAGAAUGAGTT against Nptx1: the z-score is inactive: 0.868. Then GGCUCCUGGCUUUAUCCUGTT against Olfr107, with inactive: -0.159; and GGGAAAUCUCUGAUUACAUTT against Eif2ak3, with inactive: 0.253. For “GGGCUUAAAUCGGUUUGAATT against 2810006K23Rik”, the z-score is inactive: 0.741. On to GGCCUCCAAUUUUCAAGUUTT against Pnliprp1, for which the z-score was inactive: 0.357.
